Assay results reported in publication doi:10.1101/2022.01.29.478334.
These are yes or no findings as the source states them, for the method shown. In cells and extracts the contact can be indirect. Some results given as binding are weak or reduced against the parent protein; the word gives no strength.

Amino acid sequences for entries named in this document (tags omitted). Residues count along the entry.
UniProt P35222: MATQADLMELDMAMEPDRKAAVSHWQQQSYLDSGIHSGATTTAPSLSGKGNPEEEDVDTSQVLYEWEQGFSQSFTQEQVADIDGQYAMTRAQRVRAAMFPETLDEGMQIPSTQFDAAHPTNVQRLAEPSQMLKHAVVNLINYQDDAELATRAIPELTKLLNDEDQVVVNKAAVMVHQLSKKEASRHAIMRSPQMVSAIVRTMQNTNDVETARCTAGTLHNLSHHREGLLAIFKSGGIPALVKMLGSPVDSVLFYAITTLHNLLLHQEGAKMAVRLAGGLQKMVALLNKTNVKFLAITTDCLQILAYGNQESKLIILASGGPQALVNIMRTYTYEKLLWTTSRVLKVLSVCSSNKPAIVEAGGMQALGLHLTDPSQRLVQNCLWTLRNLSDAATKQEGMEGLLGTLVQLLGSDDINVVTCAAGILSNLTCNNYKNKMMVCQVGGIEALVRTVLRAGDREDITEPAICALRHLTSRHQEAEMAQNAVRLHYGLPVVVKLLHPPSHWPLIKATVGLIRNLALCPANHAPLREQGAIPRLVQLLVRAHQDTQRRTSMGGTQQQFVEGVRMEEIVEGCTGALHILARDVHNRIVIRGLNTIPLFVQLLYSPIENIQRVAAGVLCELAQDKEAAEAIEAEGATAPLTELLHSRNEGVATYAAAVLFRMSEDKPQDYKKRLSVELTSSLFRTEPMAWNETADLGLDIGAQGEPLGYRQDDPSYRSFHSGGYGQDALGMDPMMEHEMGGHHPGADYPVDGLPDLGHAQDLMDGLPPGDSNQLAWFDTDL
UniProt Q9Y219, residues 24-1238: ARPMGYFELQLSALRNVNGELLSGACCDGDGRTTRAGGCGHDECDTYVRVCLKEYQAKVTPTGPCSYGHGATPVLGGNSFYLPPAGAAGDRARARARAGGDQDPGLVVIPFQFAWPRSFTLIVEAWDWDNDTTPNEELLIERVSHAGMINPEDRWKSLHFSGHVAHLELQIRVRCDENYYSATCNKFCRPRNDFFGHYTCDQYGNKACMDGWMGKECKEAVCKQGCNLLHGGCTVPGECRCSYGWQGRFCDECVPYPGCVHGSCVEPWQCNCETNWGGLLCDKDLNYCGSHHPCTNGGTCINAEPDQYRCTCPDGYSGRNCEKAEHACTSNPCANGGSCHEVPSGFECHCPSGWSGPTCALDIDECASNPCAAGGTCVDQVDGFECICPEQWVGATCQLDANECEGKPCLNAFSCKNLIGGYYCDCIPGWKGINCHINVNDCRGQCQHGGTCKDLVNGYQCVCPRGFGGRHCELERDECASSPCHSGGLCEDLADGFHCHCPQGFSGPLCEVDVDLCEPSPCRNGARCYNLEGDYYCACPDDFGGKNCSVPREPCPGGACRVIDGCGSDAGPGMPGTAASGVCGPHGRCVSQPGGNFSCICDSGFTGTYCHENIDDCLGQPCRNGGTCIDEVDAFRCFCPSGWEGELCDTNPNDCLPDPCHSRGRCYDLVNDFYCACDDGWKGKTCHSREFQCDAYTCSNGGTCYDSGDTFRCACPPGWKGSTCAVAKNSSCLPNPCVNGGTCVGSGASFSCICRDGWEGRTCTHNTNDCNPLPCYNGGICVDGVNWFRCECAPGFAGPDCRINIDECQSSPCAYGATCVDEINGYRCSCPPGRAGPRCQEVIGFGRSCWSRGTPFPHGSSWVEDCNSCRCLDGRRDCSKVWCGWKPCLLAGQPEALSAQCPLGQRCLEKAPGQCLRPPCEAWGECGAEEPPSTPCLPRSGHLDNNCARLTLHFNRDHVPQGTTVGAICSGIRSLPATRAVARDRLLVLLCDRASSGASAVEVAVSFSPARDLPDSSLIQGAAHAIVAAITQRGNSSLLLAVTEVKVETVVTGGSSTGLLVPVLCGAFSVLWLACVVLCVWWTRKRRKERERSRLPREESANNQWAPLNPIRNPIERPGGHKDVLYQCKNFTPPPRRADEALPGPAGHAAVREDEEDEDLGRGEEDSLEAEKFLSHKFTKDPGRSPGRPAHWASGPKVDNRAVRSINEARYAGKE

Biological target: β-catenin (human (endogenous in primary bronchial epithelial cells)) (UniProt P35222)
Assay: co-IP

binding: binds
Substance: Jagged2 (JAG2) (from UniProt Q9Y219 24-1238)
